Test [1] concerns the target T1, ASI1-IMMUNO… PROTEIN 3 (AIPP3), epitope-tagged in transgenic Arabidopsis (Arabidopsis) (UniProt Q8RXT5).
T1 sequence: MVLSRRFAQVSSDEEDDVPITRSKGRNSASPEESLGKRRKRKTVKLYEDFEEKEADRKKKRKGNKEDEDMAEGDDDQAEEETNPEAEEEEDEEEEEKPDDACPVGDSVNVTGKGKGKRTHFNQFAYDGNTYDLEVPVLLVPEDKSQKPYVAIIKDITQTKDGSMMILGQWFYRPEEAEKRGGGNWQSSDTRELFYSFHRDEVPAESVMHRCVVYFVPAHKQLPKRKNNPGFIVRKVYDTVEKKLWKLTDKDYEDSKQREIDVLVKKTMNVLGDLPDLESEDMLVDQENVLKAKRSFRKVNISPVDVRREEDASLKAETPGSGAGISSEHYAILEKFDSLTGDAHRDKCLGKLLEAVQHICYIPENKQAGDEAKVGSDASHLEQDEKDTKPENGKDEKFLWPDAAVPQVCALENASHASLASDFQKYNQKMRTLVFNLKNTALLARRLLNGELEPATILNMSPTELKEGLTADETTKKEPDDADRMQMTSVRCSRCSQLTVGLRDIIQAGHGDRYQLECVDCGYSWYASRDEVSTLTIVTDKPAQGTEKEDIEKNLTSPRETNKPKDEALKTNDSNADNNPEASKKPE
The experiment in a line: affinity purification with mass spectrometry; total proteins of inflorescence tissues of epitope-tagged transgenic plants in IP buffer (50 mM Tris-HCl pH 7.6, 150 mM NaCl, 5 mM MgCl2, 10% glycerol, 0.1% NP-40, 0.5 mM DTT), precipitated with anti-Flag or anti-Myc antibodies 2 h at 4 °C, five washes, MS.

Test [2] concerns the target T2, AIPP2, epitope-tagged in transgenic Arabidopsis (Arabidopsis) (UniProt F4IYH6).
T2 sequence: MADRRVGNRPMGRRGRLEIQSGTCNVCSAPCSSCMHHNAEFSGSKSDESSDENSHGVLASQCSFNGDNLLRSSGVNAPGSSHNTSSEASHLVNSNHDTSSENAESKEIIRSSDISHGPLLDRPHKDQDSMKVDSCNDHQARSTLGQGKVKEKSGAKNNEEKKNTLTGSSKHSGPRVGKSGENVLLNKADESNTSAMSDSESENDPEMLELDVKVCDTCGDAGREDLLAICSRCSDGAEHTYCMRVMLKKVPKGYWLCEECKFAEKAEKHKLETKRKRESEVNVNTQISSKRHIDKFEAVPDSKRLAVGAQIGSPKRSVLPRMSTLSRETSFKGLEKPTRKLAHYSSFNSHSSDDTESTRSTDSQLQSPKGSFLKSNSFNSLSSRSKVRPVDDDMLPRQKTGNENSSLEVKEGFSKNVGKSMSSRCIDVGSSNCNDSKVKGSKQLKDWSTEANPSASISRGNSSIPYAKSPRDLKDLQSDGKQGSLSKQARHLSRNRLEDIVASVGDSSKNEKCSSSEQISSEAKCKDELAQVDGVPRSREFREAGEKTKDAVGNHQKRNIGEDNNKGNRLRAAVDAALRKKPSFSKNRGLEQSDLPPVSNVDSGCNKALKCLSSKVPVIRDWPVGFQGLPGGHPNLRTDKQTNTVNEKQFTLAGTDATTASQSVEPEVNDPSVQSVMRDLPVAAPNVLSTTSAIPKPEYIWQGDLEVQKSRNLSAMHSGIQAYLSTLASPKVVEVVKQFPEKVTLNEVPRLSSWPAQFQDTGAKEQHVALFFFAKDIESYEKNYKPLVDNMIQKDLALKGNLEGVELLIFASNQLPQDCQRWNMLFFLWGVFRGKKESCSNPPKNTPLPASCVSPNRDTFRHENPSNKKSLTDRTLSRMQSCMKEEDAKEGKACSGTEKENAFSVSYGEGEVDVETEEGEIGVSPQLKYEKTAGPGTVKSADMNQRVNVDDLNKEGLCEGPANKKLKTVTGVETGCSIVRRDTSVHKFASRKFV
The description is as above.

Results are given in words; binding and its absence hold for the method and conditions named. Binding seen in cells or lysates may run through a third protein. These calls come from enrichment with a bait or labelling near it, and not all partners need be listed. A no says only that the protein was not detected with the bait. Where a sequence is shown, tags or fusion partners need not be part of it.

This is an account of results in publication PMC7718874, “Coupling of H3K27me3 recognition with transcriptional repression through the BAH-PHD-CPL2 complex in Arabidopsis” (Nature Communications, 2020).

B1: EMBRYONIC FLOWER 1 (EMF1) (protein, UniProt Q9LYD9 1-1096)
chain: MGSSIKINSISIDLAGAANEIDMVKCDHFSMRGFVAETRERDLRKCWPFSEESVSLVDQQSYTLPTLSVPKFRWWHCMSCIKDIDAHGPKDCGLHSNSKAIGNSSVIESKSKFNSLTIIDHEKEKKTDIADNAIEEKVGVNCENDDQTATTFLKKARGRPMGASNVRSKSRKLVSPEQVGNNRSKEKLNKPSMDISSWKEKQNVDQAVTTFGSSEIAGVVEDTPPKATKNHKGIRGLMECDNGSSESINLAMSGLQRRKSRKVRLLSELLGNTKTSGGSNIRKEESALKKESVRGRKRKLLPENNYVSRILSTMGATSENASKSCDSDQGNSESTDSGFDRTPFKGKQRNRRFQVVDEFVPSLPCETSQEGIKEHDADPSKRSTPAHSLFTGNDSVPCPPGTQRTERKLSLPKKKTKKPVIDNGKSTVISFSNGIDGSQVNSHTGPSMNTVSQTRDLLNGKRVGGLFDNRLASDGYFRKYLSQVNDKPITSLHLQDNDYVRSRDAEPNCLRDFSSSSKSSSGGWLRTGVDIVDFRNNNHNTNRSSFSNLKLRYPPSSTEVADLSRVLQKDASGADRKGKTVMVQEHHGAPRSQSHDRKETTTEEQNNDDIPMEIVELMAKNQYERCLPDKEEDVSNKQPSQETAHKSKNALLIDLNETYDNGISLEDNNTSRPPKPCSSNARREEHFPMGRQQNSHDFFPISQPYVPSPFGIFPPTQENRASSIRFSGHNCQWLGNLPTVGNQNPSPSSFRVLRACDTCQSVPNQYREASHPIWPSSMIPPQSQYKPVSLNINQSTNPGTLSQASNNENTWNLNFVAANGKQKCGPNPEFSFGCKHAAGVSSSSSRPIDNFSSESSIPALHLLSLLDPRLRSTTPADQHGNTKFTKRHFPPANQSKEFIELQTGDSSKSAYSTKQIPFDLYSKRFTQEPSRKSFPITPPIGTSSLSFQNASWSPHHQEKKTKRKDTFAPVYNTHEKPVFASSNDQAKFQLLGASNSMMLPLKFHMTDKEKKQKRKAESCNNNASAGPVKNSSGPIVCSVNRNPADFTIPEPGNVYMLTGEHLKVRKRTTFKKKPAVCKQDAMKQTKKPVCPPTQNA
For B1, the binding result in test [1] and in test [2] was “no binding” each time.
